# According to the supplement of paper PMC12889115:
# The list shows a part of the results. Values are raw readings; no control value is given beside them.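 First-pass screen: polymyxin B was added at a level that permeabilizes the Salmonella outer membrane while sparing the inner membrane. DMSO wells, with and without polymyxin B, defined maximum growth. Because plates differed from one another, each plate's data were ranked separately and the compounds with the lowest OD600 were carried forward as hits.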
# System: Salmonella enterica serovar Typhimurium SL1344
# Experiment: bacterial growth OD600 after 18 h with compound and polymyxin B; higher = more bacterial growth (less inhibition)
# Details: 50 µM, Mueller-Hinton broth
smiles,measurement,setting,value
CCn1cc(CN2CCC(C3(CC)NC(=O)N(CCc4ccc(OC)cc4)C3=O)CC2)c(C)n1 (stereo not given),bacterial growth OD600,polymyxin B 0.75 µg/mL,0.85
Cn1cnnc1SCCNC1CCN(c2ccc(CC(=O)NCCc3cccc(F)c3)cc2)CC1,bacterial growth OD600,polymyxin B 0.75 µg/mL,0.813
COc1cccc(CC(=O)N2CCC(C3(C)NC(=O)N(Cc4cccc(OC)c4OC)C3=O)CC2)c1 (stereo not given),bacterial growth OD600,polymyxin B 0.75 µg/mL,0.886
O=C(c1ccco1)N1CCC2(CCCN(Cc3cccc(F)c3F)C2)C1 (stereo not given),bacterial growth OD600,polymyxin B 1 µg/mL,0.928
CCn1cc(C(=O)N2CCC(C3CCN(Cc4cccnc4)CC3)C2)cn1 (stereo not given),bacterial growth OD600,polymyxin B 0.75 µg/mL,0.859
Cc1nc(CNC(=O)C2CCCN(C3CCN(C(C)C)CC3)C2)cs1 (stereo not given),bacterial growth OD600,polymyxin B 0.75 µg/mL,0.944
COc1cccc(CCC2CCCN(C(=O)C(C)(C)C)C2)c1 (stereo not given),bacterial growth OD600,polymyxin B 0.75 µg/mL,0.644
NC(=O)C1(N2CCCCC2)CCN(Cc2nc(-c3ccccc3)no2)CC1,bacterial growth OD600,polymyxin B 1 µg/mL,0.806
COc1ccccc1OCc1cc(C(=O)NC2CCCCCC2)no1,bacterial growth OD600,polymyxin B 0.75 µg/mL,0.15
COCc1cc(CN2CCOC(Cc3ccc(F)cc3)C2)ccc1OC (stereo not given),bacterial growth OD600,polymyxin B 0.75 µg/mL,0.806
CC(C)CN(C)c1ccc(C(=O)N2CCCCC2CCn2cccn2)cn1 (stereo not given),bacterial growth OD600,polymyxin B 1 µg/mL,0.601
COc1cc(OC)cc(C(=O)NCC2CCCN(Cc3cccc(C)n3)C2)c1 (stereo not given),bacterial growth OD600,polymyxin B 1 µg/mL,0.953
Cc1nn(C)cc1CN(C)CC1(O)CCCN(Cc2ccc(F)c(F)c2)C1=O (stereo not given),bacterial growth OD600,polymyxin B 1 µg/mL,0.973
CN(Cc1ccc(F)cc1)c1ccc(-c2nc(C3CC3)no2)cn1,bacterial growth OD600,polymyxin B 0.75 µg/mL,0.187
CCC(C)NC(=O)c1coc(CN2CCN(Cc3ccccc3)CC2)n1 (stereo not given),bacterial growth OD600,polymyxin B 1 µg/mL,0.84
CC(C)c1nc(CNC(=O)C2CCC(=O)N(Cc3ccc(Cl)cc3)C2)no1 (stereo not given),bacterial growth OD600,polymyxin B 1 µg/mL,0.81
CSCc1ccc(C(=O)N2CCC3(CCCN(C)C3=O)C2)o1 (stereo not given),bacterial growth OD600,polymyxin B 1 µg/mL,0.923
O=C(CCCCc1ccccc1)Nc1ccc(N2CCC(NCCn3cccn3)CC2)cc1,bacterial growth OD600,polymyxin B 0.75 µg/mL,0.856
COCCNC(=O)c1ccc(OC)cc1OC1CCN(CCCSC)CC1,bacterial growth OD600,polymyxin B 1 µg/mL,1.16
NC(=O)C1(C(=O)N2CCC(C3CCN(Cc4ccc(Cl)cc4)C3)CC2)CC1 (stereo not given),bacterial growth OD600,polymyxin B 0.75 µg/mL,0.995

# Part of the list above, with bars between the fields:
smiles | measurement | setting | value
O=C(c1ccco1)N1CCC2(CCCN(Cc3cccc(F)c3F)C2)C1 (stereo not given) | bacterial growth OD600 | polymyxin B 1 µg/mL | 0.928
Cc1nc(CNC(=O)C2CCCN(C3CCN(C(C)C)CC3)C2)cs1 (stereo not given) | bacterial growth OD600 | polymyxin B 0.75 µg/mL | 0.944
